Results taken from the supplement of paper PMC8728848.
The list shows a part of the results.

What was measured:
Assay in all cases: glycan array binding signal (z-score within array); higher = stronger binding
Conditions in all cases: glycan notation: IUPAC condensed, linker removed
[1] = target: Neu5Ac(a2-3)Gal(b1-4)GlcNAc(b1-6)[Gal(b1-3)]GalNAc
In short: (§1)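 The binding signal is a Z-score computed within each array and averaged over linkers. Arrays of the same protein sequence at different concentrations or buffers were also averaged together. Data originate from 3228 arrays in the Consortium for Functional Glycomics database, kept only where the protein sequence was available.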

[2] = target: Neu5Ac(a2-3)Gal(b1-4)GlcNAc(b1-6)[Neu5Ac(a2-3)Gal(b1-3)]GalNAc
In short: as §1

[3] = target: Neu5Ac(a2-3)Gal(b1-4)GlcNAc6S
In short: as §1

[4] = target: Neu5Ac(a2-3)Gal(b1-4)[Fuc(a1-3)]GlcNAc
In short: as §1

[5] = target: Neu5Ac(a2-3)Gal(b1-4)[Fuc(a1-3)]GlcNAc(b1-2)Man
In short: as §1

[6] = target: Neu5Ac(a2-3)Gal(b1-4)[Fuc(a1-3)]GlcNAc(b1-3)Gal
In short: as §1

[7] = target: Neu5Ac(a2-3)Gal(b1-4)[Fuc(a1-3)]GlcNAc(b1-3)Gal(b1-4)GlcNAc
In short: as §1

[8] = target: Neu5Ac(a2-3)Gal(b1-4)[Fuc(a1-3)]GlcNAc(b1-3)Gal(b1-4)[Fuc(a1-3)]GlcNAc(b1-3)Gal(b1-4)[Fuc(a1-3)]GlcNAc
In short: as §1

[9] = target: Neu5Ac(a2-3)Gal(b1-4)[Fuc(a1-3)]GlcNAc(b1-3)GalNAc
In short: as §1

[10] = target: Neu5Ac(a2-3)Gal(b1-4)[Fuc(a1-3)]GlcNAc(b1-6)[Gal(b1-3)]GalNAc
In short: as §1

[11] = target: Neu5Ac(a2-3)Gal(b1-4)[Fuc(a1-3)]GlcNAc(b1-6)[Neu5Ac(a2-3)Gal(b1-3)]GalNAc
In short: as §1

[12] = target: Neu5Ac(a2-3)Gal(b1-4)[Fuc(a1-3)]GlcNAc6S
In short: as §1

[13] = target: Neu5Ac(a2-3)Gal6S(b1-4)GlcNAc
In short: as §1

[14] = target: Neu5Ac(a2-3)Gal6S(b1-4)[Fuc(a1-3)]GlcNAc
In short: as §1

Neu5Ac(a2-3)GalNAc = target: Neu5Ac(a2-3)GalNAc
In short: as §1

[15] = target: Neu5Ac(a2-3)GalNAc(b1-4)GlcNAc
In short: as §1

[16] = target: Neu5Ac(a2-3)[GalNAc(b1-4)]Gal(b1-4)Glc
In short: as §1

[17] = target: Neu5Ac(a2-3)[GalNAc(b1-4)]Gal(b1-4)GlcNAc
In short: as §1

[18] = target: Neu5Ac(a2-3)[GalNAc(b1-4)]Gal(b1-4)GlcNAc(b1-3)GalNAc
In short: as §1

[19] = target: Neu5Ac(a2-3)[Neu5Ac(a2-6)]GalNAc
In short: as §1

Neu5Ac(a2-6)Gal = target: Neu5Ac(a2-6)Gal
In short: as §1

[20] = target: Neu5Ac(a2-6)Gal(b1-3)GlcNAc(b1-3)[Gal(b1-4)GlcNAc(b1-6)]Gal(b1-4)Glc
In short: as §1

Neu5Ac(a2-6)Gal(b1-4)Glc = target: Neu5Ac(a2-6)Gal(b1-4)Glc
In short: as §1

[21] = target: Neu5Ac(a2-6)Gal(b1-4)GlcNAc
In short: as §1

[22] = target: Neu5Ac(a2-6)Gal(b1-4)GlcNAc(b1-2)Man
In short: as §1

[23] = target: Neu5Ac(a2-6)Gal(b1-4)GlcNAc(b1-2)Man(a1-3)Man(b1-4)GlcNAc(b1-4)GlcNAc
In short: as §1

[24] = target: Neu5Ac(a2-6)Gal(b1-4)GlcNAc(b1-2)Man(a1-3)[Gal(b1-4)GlcNAc(b1-2)Man(a1-6)]Man(b1-4)GlcNAc(b1-4)GlcNAc
In short: as §1

[25] = target: Neu5Ac(a2-6)Gal(b1-4)GlcNAc(b1-2)Man(a1-3)[GlcNAc(b1-2)Man(a1-6)]Man(b1-4)GlcNAc(b1-4)GlcNAc
In short: as §1

[26] = target: Neu5Ac(a2-6)Gal(b1-4)GlcNAc(b1-2)Man(a1-3)[GlcNAc(b1-4)][Neu5Ac(a2-6)Gal(b1-4)GlcNAc(b1-2)Man(a1-6)]Man(b1-4)GlcNAc(b1-4)GlcNAc
In short: as §1

[27] = target: Neu5Ac(a2-6)Gal(b1-4)GlcNAc(b1-2)Man(a1-3)[Man(a1-6)]Man(b1-4)GlcNAc(b1-4)GlcNAc
In short: as §1

[28] = target: Neu5Ac(a2-6)Gal(b1-4)GlcNAc(b1-2)Man(a1-3)[Neu5Ac(a2-3)Gal(b1-4)GlcNAc(b1-2)Man(a1-6)]Man(b1-4)GlcNAc(b1-4)GlcNAc
In short: as §1

[29] = target: Neu5Ac(a2-6)Gal(b1-4)GlcNAc(b1-2)Man(a1-3)[Neu5Ac(a2-6)Gal(b1-4)GlcNAc(b1-2)Man(a1-6)]Man(b1-4)GlcNAc(b1-4)GlcNAc
In short: as §1

[30] = target: Neu5Ac(a2-6)Gal(b1-4)GlcNAc(b1-2)Man(a1-3)[Neu5Ac(a2-6)Gal(b1-4)GlcNAc(b1-2)Man(a1-6)]Man(b1-4)GlcNAc(b1-4)[Fuc(a1-6)]GlcNAc
In short: as §1

[31] = target: Neu5Ac(a2-6)Gal(b1-4)GlcNAc(b1-2)Man(a1-6)Man(b1-4)GlcNAc(b1-4)GlcNAc
In short: as §1

[32] = target: Neu5Ac(a2-6)Gal(b1-4)GlcNAc(b1-2)Man(a1-6)[Gal(b1-4)GlcNAc(b1-2)Man(a1-3)]Man(b1-4)GlcNAc(b1-4)GlcNAc
In short: as §1

[33] = target: Neu5Ac(a2-6)Gal(b1-4)GlcNAc(b1-2)Man(a1-6)[GlcNAc(b1-2)Man(a1-3)]Man(b1-4)GlcNAc(b1-4)GlcNAc
In short: as §1

[34] = target: Neu5Ac(a2-6)Gal(b1-4)GlcNAc(b1-2)Man(a1-6)[Man(a1-3)]Man(b1-4)GlcNAc(b1-4)GlcNAc
In short: as §1

[35] = target: Neu5Ac(a2-6)Gal(b1-4)GlcNAc(b1-2)[Neu5Ac(a2-6)Gal(b1-4)GlcNAc(b1-4)]Man(a1-3)[GlcNAc(b1-4)][Neu5Ac(a2-6)Gal(b1-4)GlcNAc(b1-2)[Neu5Ac(a2-6)Gal(b1-4)GlcNAc(b1-6)]Man(a1-6)]Man(b1-4)GlcNAc(b1-4)GlcNAc
In short: as §1

[36] = target: Neu5Ac(a2-6)Gal(b1-4)GlcNAc(b1-2)[Neu5Ac(a2-6)Gal(b1-4)GlcNAc(b1-4)]Man(a1-3)[GlcNAc(b1-4)][Neu5Ac(a2-6)Gal(b1-4)GlcNAc(b1-4)Man(a1-6)]Man(b1-4)GlcNAc(b1-4)GlcNAc
In short: as §1

[37] = target: Neu5Ac(a2-6)Gal(b1-4)GlcNAc(b1-2)[Neu5Ac(a2-6)Gal(b1-4)GlcNAc(b1-6)]Man(a1-6)[Neu5Ac(a2-6)Gal(b1-4)GlcNAc(b1-2)Man(a1-3)][GlcNAc(b1-4)]Man(b1-4)GlcNAc(b1-4)GlcNAc
In short: as §1

[38] = target: Neu5Ac(a2-6)Gal(b1-4)GlcNAc(b1-3)Gal(b1-3)GlcNAc
In short: as §1

[39] = target: Neu5Ac(a2-6)Gal(b1-4)GlcNAc(b1-3)Gal(b1-4)GlcNAc
In short: as §1

[40] = target: Neu5Ac(a2-6)Gal(b1-4)GlcNAc(b1-3)Gal(b1-4)GlcNAc(b1-2)Man(a1-3)[Neu5Ac(a2-6)Gal(b1-4)GlcNAc(b1-3)Gal(b1-4)GlcNAc(b1-2)Man(a1-6)]GalNAc
In short: as §1

[41] = target: Neu5Ac(a2-6)Gal(b1-4)GlcNAc(b1-3)Gal(b1-4)GlcNAc(b1-3)Gal(b1-4)GlcNAc
In short: as §1

[42] = target: Neu5Ac(a2-6)Gal(b1-4)GlcNAc(b1-3)Gal(b1-4)GlcNAc(b1-3)Gal(b1-4)GlcNAc(b1-2)Man(a1-3)[Neu5Ac(a2-6)Gal(b1-4)GlcNAc(b1-3)Gal(b1-4)GlcNAc(b1-3)Gal(b1-4)GlcNAc(b1-2)Man(a1-6)]GalNAc
In short: as §1

B1: FliC (Clostridium difficile) (protein)
chain: MRVNTNVSALIANNQMGRNVNGQSKSMEKLSSGVRIKRAADDAAGLAISEKMRAQIKGLDQAGRNVQDGISVVQTAEGSLEETGNILQRMRTLSLQSANEINNTEEREKIADELTQLKDEIERISSSTEFNGKKLLDGTSSTIRLQVGASYGTNVSGTSNNNNEIKIQLVNTASIMASAGITTASIGSMKAGGTTGTDAAKTMVSSLDAALKSLNSSRAKLGAQQNRLESTQNNLNNTLENVTAAESRIRDTDVASEMVNLSKMNILVQASQSMLAQANQQPQGVLQLLG
- glycan array binding signal (z-score) [1]: 0.457
- glycan array binding signal (z-score) [2]: 0.606
- glycan array binding signal (z-score) [3]: -0.623
- glycan array binding signal (z-score) [4]: -0.47
- glycan array binding signal (z-score) [5]: -0.259
- glycan array binding signal (z-score) [6]: -0.24
- glycan array binding signal (z-score) [7]: 0.302
- glycan array binding signal (z-score) [8]: -0.532
- glycan array binding signal (z-score) [9]: -0.403
- glycan array binding signal (z-score) [10]: 0.301
- glycan array binding signal (z-score) [11]: -0.082
- glycan array binding signal (z-score) [12]: -0.233
- glycan array binding signal (z-score) [13]: -0.384
- glycan array binding signal (z-score) [14]: -0.433
- glycan array binding signal (z-score) (Neu5Ac(a2-3)GalNAc): -0.695
- glycan array binding signal (z-score) [15]: -0.324
- glycan array binding signal (z-score) [16]: -0.049
- glycan array binding signal (z-score) [17]: -0.037
- glycan array binding signal (z-score) [18]: -0.543
- glycan array binding signal (z-score) [19]: -0.725
- glycan array binding signal (z-score) (Neu5Ac(a2-6)Gal): 0.803
- glycan array binding signal (z-score) [20]: -0.2
- glycan array binding signal (z-score) (Neu5Ac(a2-6)Gal(b1-4)Glc): 0.551
- glycan array binding signal (z-score) [21]: -0.807
- glycan array binding signal (z-score) [22]: 0.072
- glycan array binding signal (z-score) [23]: -0.236
- glycan array binding signal (z-score) [24]: -0.515
- glycan array binding signal (z-score) [25]: 0.511
- glycan array binding signal (z-score) [26]: -0.478
- glycan array binding signal (z-score) [27]: -0.225
- glycan array binding signal (z-score) [28]: -0.327
- glycan array binding signal (z-score) [29]: -0.029
- glycan array binding signal (z-score) [30]: -0.282
- glycan array binding signal (z-score) [31]: -0.54
- glycan array binding signal (z-score) [32]: -0.817
- glycan array binding signal (z-score) [33]: 0.217
- glycan array binding signal (z-score) [34]: -0.487
- glycan array binding signal (z-score) [35]: -0.178
- glycan array binding signal (z-score) [36]: 0.199
- glycan array binding signal (z-score) [37]: -0.518
- glycan array binding signal (z-score) [38]: -0.801
- glycan array binding signal (z-score) [39]: -0.331
- glycan array binding signal (z-score) [40]: 0.644
- glycan array binding signal (z-score) [41]: -0.328
- glycan array binding signal (z-score) [42]: 2.32
